Assay [1] deals with T1, Sam domain of Ship2 (Src homology 2 domain-containing phosphoinositide-5-phosphatase 2) (UniProt O15357).
T1 sequence: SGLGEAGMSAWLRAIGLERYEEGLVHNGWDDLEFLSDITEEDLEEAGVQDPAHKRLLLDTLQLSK
The assay can be described thus: NMR 15N R1/R2 relaxation (rotational correlation time); 25 C, 600 MHz; 15N Arap3-Sam alone at 150 uM and 1.4 mM; 15N Ship2-Sam (1 mM) with unlabeled Arap3-Sam (2 mM); both purified.

The target in assay [2] is T1, Sam domain of Ship2 (Src homology 2 domain-containing phosphoinositide-5-phosphatase 2). The assay is described as follows: NMR titration; 2D [1H,15N]-HSQC chemical shift perturbation; 15N Ship2-Sam (200 uM) titrated with unlabeled Arap3-Sam (50-233 uM), and 15N Arap3-Sam titrated with unlabeled Ship2-Sam (50, 100, 200 uM); both purified.
For assay [3], the target named is Sam domain of Arap3 (Arap3-Sam), construct with N-terminal 6His-tag (human). The assay is described as above.

No constants are given. Whether binding was seen depends on the method and setting. A result given as binding can be weak or reduced; the word gives no strength.

On to “Sam domain of Arap3 (Arap3-Sam), construct with N-terminal 6His-tag (human) (domain or fragment)”, for which the binding result in assay [1] and in assay [2] was “binds” each time.

B1: Sam domain of Ship2 (Src homology 2 domain-containing phosphoinositide-5-phosphatase 2) (domain or fragment, UniProt O15357 1194-1258)
chain: T1 sequence
In the case of B1, the binding result in assay [3] is “binds”.

Values taken from publication PMC2755476, “The Sam domain of the lipid phosphatase Ship2 adopts a common model to interact with Arap3-Sam and EphA2-Sam” (BMC Structural Biology, 2009).
